In PubChem BioAssay AID2685 (National Center for Advancing Translational Sciences (NCATS), 2010) one finds cell number change and AC50 data, which are given here for 60 molecules.

The structures appear in SMILES notation. The list shows a part of the results. The main result of the screen is listed elsewhere. These columns were measured beside it and carry no call. Most of these compounds were active or inconclusive in the main read-out, so they are no random draw. Potencies come from curve fits of mixed quality, noted in brackets.

Usually AC50 stands for the midpoint of the concentration-response curve, whichever way the signal moves. Low values mean greater potency, high ones weaker potency.

This assay can be described thus: qHTS Assay for Lipid Storage Modulators in Drosophila S3 Cells.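 On cell number change: cells counted by Cell Tracker Red CMTPX staining in the red channel.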 The following applies: BODIPY lipid droplet fluorescence, 18-24 h; for cell number change: measured here: cell count max response, cells fed with added oleic acid. Put shortly:
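Laser-scanning cytometry quantifies lipid droplet accumulation (500–530 nm total intensity; droplet/cell object ratio) in oleic acid-fed (400 uM added) Drosophila S3 cells treated with a concentration series. 20 uM Triacsin C defined 100% inhibition.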
A general note: In qHTS, concentration-response curves come from the screen itself.

Where [1] appears, read: measured here: lipid fluorescence (Fed channel) AC50, cells fed with added oleic acid.
Where [2] appears, read: measured here: cell number channel AC50, cells fed with added oleic acid.

In the case of `O=Cc1ccc(Oc2ccc(F)cc2)nc1`, the cell number change is -14.9%.
Still for that read-out and setting: the figure for `COC(=O)c1ccc(CNC(=O)COC(=O)c2cc(Cl)nc(Cl)c2)cc1` is -4.03%.
With `CC1(C)CC(=O)C2=C(C1)c1c(ccc3ncccc13)NC2c1cccs1` (centres undefined), the cell number change was -17.2%. Moreover, under setting [1], the AC50 is 2.59 µM [rising, single point].
Regarding `Cc1ccc(NC(=O)c2ccc3snnc3c2)cc1C`, the cell number change amounted to 29%.
As to `CC(C)(C)Sc1ccc(N)nc1`, the cell number change is 8.58%. The AC50 under setting [1] is 0.00731 µM [falling, full curve, poor fit].
With `NC(=O)C1CCN(CCC(=O)Nc2cccc(Cl)c2)CC1`, the cell number change turned out to be 1.4%. In addition, the AC50 under setting [1] was 32.6 µM [falling, single point].
Take `Cc1cccc(NCc2nnc(-c3ccccc3)o2)c1C`: the cell number change is -8.54%. In addition, the AC50 under setting [2] is 1.03 µM [rising, full curve, poor fit].
Regarding `Cc1ccc(S(=O)(=O)NCc2cccnc2)cc1C`, the cell number change is 35.8%. In addition, the AC50 under setting [2] was 0.731 µM [rising, full curve].
For `CN(C)S(=O)(=O)c1ccc(C(=O)NCc2nnc(SCC(=O)NCc3ccco3)o2)cc1`, the cell number change is 18.6%. Besides, the AC50 under setting [1] was 2.59 µM [rising, single point].
In the case of `COc1ccc(/C=C2\SC(=S)N(NC(=O)c3ccncc3)C2=O)cc1OC`, the cell number change was -2.23%.
As for `CC1SC(C)C(=O)N(CC(=O)NC2CCCCC2)C1=O` (centres undefined), the cell number change is -9.49%. Under setting [2], the AC50 is 1.84 µM [rising, partial curve]. In addition, under setting [1], the AC50 was 2.06 µM [rising, partial curve].
For the molecule `COc1cccc(NC(=O)CN(c2cccc(OC)c2)S(C)(=O)=O)c1`, the cell number change is -6.77%. The AC50 under setting [1] was 0.164 µM [falling, full curve, poor fit].
Regarding `CCOc1ccc(OCCC(=O)NNC(=O)c2ccccc2Cl)cc1`, the cell number change amounted to 61%. Moreover, the half-maximal activity concentration (AC50) under setting [2] is 13 µM [rising, partial curve]. In addition, under setting [1], the half-maximal activity concentration (AC50) was 6.51 µM [rising, partial curve].
As to `C#CCOCCOCCOCCNc1nc(N2CCN(C(=O)CCCCCCCCCCNC(=O)[C@H](CCCCN)n3cc(CCO)nn3)CC2)nc(N2CCN(C(=O)CCCCCCCCCCNC(=O)[C@H](CCCN=C(N)N)n3cc(C[C@@H](C)CC)nn3)CC2)n1`, the cell number change is -60.7%. Further, the AC50 under setting [2] is 18.4 µM [falling, single point]. For the same molecule, the AC50 under setting [1] was 11.6 µM [falling, single point].
As to `O=C1CCCCCN1C(=O)c1cccc(C(=O)N2CCCCCC2=O)c1`, the cell number change worked out at 6.45%. Also, the AC50 under setting [1] is 29.1 µM [falling, single point].
For `Cc1ccnc(Nc2nc(-c3ccc(O)c(O)c3)cs2)c1`, the cell number change is -48.9%. The AC50 under setting [2] is 29.1 µM [falling, single point].
On to `CN(CC(=O)Nc1cc([N+](=O)[O-])ccc1Cl)Cc1ccc(Br)cc1`, for which the cell number change came out at 1.16%. Besides, the AC50 under setting [1] is 0.731 µM [rising, single point].
Regarding `O=C(CCCCCN1C(=O)[C@@H]2Cc3ccccc3CN2C1=O)Nc1ccccc1F`, the AC50 under setting [1] is 0.291 µM [rising, partial curve, poor fit].
Consider `COc1cccc(CN2CC(C(=O)NCCc3ccccc3C(F)(F)F)CCC2=O)c1` (centres undefined), for which the cell number change came out at 37.8%. In addition, the AC50 under setting [1] was 29.1 µM [rising, single point].
On to `COc1ccc(NC(=O)c2cc([N+](=O)[O-])ccc2NC(=O)CNC2CCCCC2C)c(OC)c1` (centres undefined), for which the cell number change was -15.1%. In addition, the AC50 under setting [1] was 4.11 µM [falling, full curve, poor fit].
On to `CCOc1ccc2nc(/N=C/c3c(C)[nH]n(-c4ccc(C)cc4)c3=O)sc2c1`, for which the cell number change was -11.7%. The half-maximal activity concentration (AC50) under setting [2] is 6.51 µM [rising, single point].
As for `COC(=O)c1cc(NC(=O)Cn2c(=O)oc3ccccc32)cc(C(=O)OC)c1`, the cell number change was 49.2%. Further, under setting [1], the half-maximal activity concentration (AC50) is 6.51 µM [falling, single point].
As for `Cc1ccc(SCCC(=O)OC(C)C(=O)Nc2ccccc2)cc1` (centres undefined), the cell number change was determined as 16.3%. Besides, under setting [1], the AC50 was 16.4 µM [falling, single point].
Consider `CC(=O)c1cc2c(cc1NC(=O)c1cc3nc(C(C)C)cc(C(F)(F)F)n3n1)OCO2`, for which the cell number change came to 38%. For the same molecule, the AC50 under setting [2] was 0.103 µM [rising, full curve, poor fit]. The AC50 under setting [1] was 0.103 µM [rising, full curve, poor fit].
Take `COc1ccccc1N1CCN(C(=O)C(C)N(c2ccccc2)S(C)(=O)=O)CC1` (centres undefined): the cell number change turned out to be 24.8%. For the same molecule, the AC50 under setting [1] is 0.731 µM [rising, full curve, poor fit].
On to `COc1ccccc1N1CCN(Cc2nc(N)nc(Nc3ccc(C)c(Cl)c3)n2)CC1`, for which the cell number change is -85.1%. In addition, under setting [1], the AC50 is 0.651 µM [rising, partial curve, poor fit].
Take `O=C(CS(=O)(=O)Cc1ccccc1)N1CCN(C(=O)c2ccco2)CC1`: the cell number change was -16%.
For the molecule `O=C(Nc1ccc(N2CCCCC2)cc1)c1ccc(F)cc1`, the cell number change turned out to be 39.4%. Under setting [2], the AC50 was 29.1 µM [rising, single point]. The AC50 under setting [1] is 29.1 µM [rising, single point].
As for `O=C(COC(=O)c1cccs1)NCCCc1ccccc1`, the cell number change was 28.2%. The AC50 under setting [1] was 6.51 µM [falling, partial curve, poor fit].
Take `Cc1ccc(C(=O)C(C)OC(=O)c2nc(Cl)ccc2Cl)cc1` (centres undefined): the cell number change was 10.3%. The half-maximal activity concentration (AC50) under setting [1] was 20.6 µM [rising, single point].
On to `O=C(CNC(=O)c1cccc(F)c1)N/N=C/c1ccc([N+](=O)[O-])s1`, for which the cell number change is -34.7%. Besides, the AC50 under setting [2] was 23.1 µM [falling, partial curve, poor fit]. Further, the concentration at half-maximal activity (AC50) under setting [1] was 20.6 µM [falling, partial curve].
`COc1ccc(/C=C2\CCCC3C2=NC(=S)NC3c2ccc(OC)cc2)cc1` (centres undefined): the cell number change amounted to 7.46%.
With `CCN(CC)c1ccc(N)cc1`, the cell number change was -83.4%. For the same molecule, under setting [2], the AC50 is 8.2 µM [falling, single point]. Besides, under setting [1], the AC50 was 0.82 µM [rising, single point].
In the case of `FC(F)Oc1ccccc1NC(=S)Nc1cccc(Cl)c1Cl`, the cell number change was -17.3%. In addition, the AC50 under setting [1] is 7.31 µM [rising, partial curve, poor fit].
For the molecule `Cc1ccc(C)c(N2CCN(C(=O)c3cc(S(=O)(=O)N4CCOCC4)cn3C)CC2)c1`, the cell number change came out at 4.32%. Further, under setting [1], the half-maximal activity concentration (AC50) is 0.184 µM [falling, full curve, poor fit].
Turning to `Cc1cc(NC(=O)CSc2nc(=O)n3cccc(C)c3n2)no1`, the cell number change was determined as 28.2%. In addition, the AC50 under setting [2] is 0.146 µM [rising, full curve, poor fit].
As for `CCCCCCC(C)OC(=O)c1ccccc1C(=O)O` (centres undefined), the cell number change was -16.1%. Also, the AC50 under setting [1] is 29.1 µM [rising, single point].
Turning to `CCCNC(=O)/C(C#N)=C1\N=C(NC(=O)c2ccco2)c2ccccc21`, the cell number change was -9.89%. Also, under setting [1], the AC50 is 29.1 µM [falling, single point].
As for `Cc1ccc(SC[C@H](C)CN2CC[C@H](NC(=O)OCc3ccccc3)CCC2=O)cc1`, the cell number change is 0.971%.
Same read-out and setting: then `O=C(NC(Cc1ccccc1)C(=O)NCCc1ccccn1)c1cccs1` (centres undefined), with -4.96%.
In the case of `O=C(CSc1nnnn1-c1ccc2c(c1)OCCO2)Nc1nc2c(s1)CCCC2`, the cell number change was -18.3%. For the same molecule, the AC50 under setting [1] is 5.8 µM [rising, partial curve].
For `Cc1ccccc1OCCC(=O)OCC(=O)NC1CCS(=O)(=O)C1` (centres undefined), the cell number change is -32.6%. Moreover, under setting [2], the AC50 was 3.26 µM [falling, full curve]. Also, the AC50 under setting [1] was 11.6 µM [falling, partial curve].
Consider `CC1CCc2c(c3ccccc3n2C(=O)CCl)C1` (centres undefined), for which the cell number change was -20.1%. The AC50 under setting [1] is 2.91 µM [falling, partial curve].
Consider `O=C(O)C1C2CCC(O2)C1C(=O)Nc1ccc(OC(F)F)cc1` (centres undefined), for which the cell number change is -0.275%.
Take `CCOc1ccccc1OCc1nn2c(-c3ccc(C)cc3)nnc2s1`: the cell number change turned out to be 3.31%.
Same read-out and setting: the figure for `O=C1N/C(=C\c2ccc(O)cc2)C(=O)c2ccccc21` is -17.2%.
For the molecule `Fc1cc(Br)ccc1Nc1nc2ccccc2n2nnnc12`, the cell number change was -51.1%. Moreover, the AC50 under setting [2] is 6.51 µM [falling, full curve]. Further, the AC50 under setting [1] was 7.31 µM [falling, partial curve].
In the case of `COc1ccc(N(CC(=O)Nc2ccccc2OC)S(=O)(=O)c2ccc(OC)c(OC)c2)cc1`, the cell number change is 13.7%.
Turning to `COc1ccc(C(=O)n2nc(-c3ccc(C)cc3)nc2N)cc1OC`, the cell number change amounted to 2.03%. Besides, under setting [1], the AC50 is 0.00411 µM [rising, full curve, poor fit].
Take `O=C(CCC(=O)c1cccs1)OCC(=O)N1CCN(C(=O)c2ccco2)CC1`: the cell number change is -19.2%.
For `Cc1ccc(C)c(N2CCN(C(=O)c3ccc(Cl)c(NC4=NC5CS(=O)(=O)CC5S4)c3)CC2)c1` (centres undefined), under setting [1], the AC50 is 29.1 µM [falling, single point].
`O=C1c2ccccc2C(=O)N1CCN1CCc2ccccc21`: the cell number change is -1.87%. The half-maximal activity concentration (AC50) under setting [1] was 1.46 µM [rising, full curve, poor fit].
With `COC(=O)c1ccc(Oc2c(F)c(F)nc(N3CCOCC3)c2F)cc1`, the cell number change is -23.3%. Moreover, under setting [1], the AC50 is 23.1 µM [falling, single point].
Consider `CC1=CSC2=NC(=O)/C(=C/c3cccc(OC(=O)c4ccco4)c3)C(=N)N12`, for which the cell number change was 17%. The concentration at half-maximal activity (AC50) under setting [1] was 1.03 µM [rising, partial curve].
On to `Nc1cc(Nc2ccccc2)c2nonc2c1[N+](=O)[O-]`, for which the cell number change was -82.6%. Also, the AC50 under setting [2] is 2.31 µM [falling, full curve]. For the same molecule, the AC50 under setting [1] is 2.06 µM [falling, full curve].
Regarding `COc1cc(NC(=O)c2cc([N+](=O)[O-])ccc2N2CCOCC2)ccc1NC(=O)c1ccco1`, the cell number change was -51.9%. The AC50 under setting [2] is 13 µM [falling, partial curve, poor fit].
With `CCOC(=O)c1cc2c(=O)n3ccccc3nc2n(CC2CCCO2)c1=NC(=O)/C=C/c1ccccc1` (centres undefined), the AC50 under setting [1] was 2.59 µM [rising, partial curve, poor fit].
Consider `COC(=O)c1ccc(-c2ccc([C@H]3[C@H]4C=CC[C@@H](C)[C@@H]4C(=O)N3Cc3ccccc3)c(F)c2)cc1`, for which the cell number change was -16.5%. Moreover, the AC50 under setting [2] was 0.13 µM [falling, full curve, poor fit].
In the case of `CC(C)CSC1=NSC2=NC(=O)/C(=C\c3coc4ccccc4c3=O)C(=N)N12`, the cell number change is -0.388%. Besides, the AC50 under setting [1] is 29.1 µM [falling, single point].
As for `CCn1c(SCC(=O)N(C(C)C)C(C)C)nnc1-c1cc2ccccc2cc1O`, the cell number change is -31%. The AC50 under setting [1] is 29.1 µM [falling, partial curve].
